Reference: PMC11094040
No constants are given. Whether binding was seen depends on the method and setting. In cells and extracts the contact can be indirect. A yes stands for co-enrichment or nearness to the bait. Other partners may have been found.

Target: T1, BmAgo3 (silkworm (endogenous in BmN4)) (UniProt A9ZSZ2)
T1 sequence: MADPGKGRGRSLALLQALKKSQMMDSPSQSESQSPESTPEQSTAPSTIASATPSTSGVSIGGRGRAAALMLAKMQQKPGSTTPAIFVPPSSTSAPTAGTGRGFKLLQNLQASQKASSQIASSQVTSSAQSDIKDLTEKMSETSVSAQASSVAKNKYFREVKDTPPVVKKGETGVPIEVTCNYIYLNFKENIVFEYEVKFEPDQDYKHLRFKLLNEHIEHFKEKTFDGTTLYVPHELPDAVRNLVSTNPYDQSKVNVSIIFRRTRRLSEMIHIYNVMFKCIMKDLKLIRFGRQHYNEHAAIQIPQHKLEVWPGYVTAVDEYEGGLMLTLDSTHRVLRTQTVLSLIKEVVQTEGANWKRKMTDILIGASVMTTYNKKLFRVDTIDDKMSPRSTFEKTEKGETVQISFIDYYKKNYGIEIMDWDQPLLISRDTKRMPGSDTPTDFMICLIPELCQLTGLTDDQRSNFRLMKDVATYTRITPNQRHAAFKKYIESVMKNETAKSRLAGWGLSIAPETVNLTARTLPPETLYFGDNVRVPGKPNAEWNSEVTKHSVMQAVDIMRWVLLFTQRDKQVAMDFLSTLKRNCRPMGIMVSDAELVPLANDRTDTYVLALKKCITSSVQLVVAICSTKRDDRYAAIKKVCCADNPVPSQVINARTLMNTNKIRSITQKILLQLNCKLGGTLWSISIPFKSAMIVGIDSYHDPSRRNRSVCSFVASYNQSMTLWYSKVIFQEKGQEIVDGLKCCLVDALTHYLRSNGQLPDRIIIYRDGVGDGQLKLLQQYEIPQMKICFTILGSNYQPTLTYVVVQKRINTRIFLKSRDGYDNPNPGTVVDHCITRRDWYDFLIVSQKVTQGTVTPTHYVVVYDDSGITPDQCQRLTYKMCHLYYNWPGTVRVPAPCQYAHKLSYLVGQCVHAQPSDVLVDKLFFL
Experiment: affinity purification with mass spectrometry; anti-BmAgo3 antibody and Dynabeads Protein G on lysate of BmN4 cells treated with dsRNA targeting Rluc (control) or Siwi; buffer A (25 mM Tris-HCl pH 7.6, 150 mM NaCl, 1.5 mM MgCl2, 0.2% sodium deoxycholate, 0.1% lithium dodecyl sulfate, 0.4% NP-40), 4 °C; SDS-PAGE, CBB staining, p160 band identified by LC-MS/MS

With “Spindle-E (Spn-E), endogenous (silkworm (endogenous in BmN4))” the binding was “binds”.
